Reference: US20250326866A1, “TRANSFERRIN RECEPTOR TARGETING PEPTIDE OLIGONUCLEOTIDE COMPLEXES AND METHODS OF USE THEREOF” (Blaze Bioscience, Inc., priority 2021, published 2025)
At least one structure is not confirmed: it was looked up by name or label, or the drawing left a doubt.

System: CRE-driven luciferase
Experiment: CRE-luciferase reporter mice, in vivo brain luminescence
Conditions: 4 hours after IP 1.68 mg rolipram and 0.84 mg forskolin given together

C=C[C@@]1(C)CC(=O)[C@]2(O)[C@@]3(C)[C@@H](O)CCC(C)(C)[C@@H]3[C@H](O)[C@H](OC(C)=O)[C@@]2(C)O1 [forskolin]
CRE-Luc brain luminescence, positive control: high levels of luminescence
